Data taken from paper PMC11653647.
Results are given in words; binding and its absence hold for the method and conditions named. Binding seen in cells or lysates may run through a third protein. Some binding calls cover weakened binding; strength is not graded here. For part of these data: Sequences can lack the tags named with a protein.

Chains of the proteins cited; added tags and fusions are not shown. Lines headed by an entry give the natural chain unless they say otherwise; changes in a name come on top.
UniProt O14744: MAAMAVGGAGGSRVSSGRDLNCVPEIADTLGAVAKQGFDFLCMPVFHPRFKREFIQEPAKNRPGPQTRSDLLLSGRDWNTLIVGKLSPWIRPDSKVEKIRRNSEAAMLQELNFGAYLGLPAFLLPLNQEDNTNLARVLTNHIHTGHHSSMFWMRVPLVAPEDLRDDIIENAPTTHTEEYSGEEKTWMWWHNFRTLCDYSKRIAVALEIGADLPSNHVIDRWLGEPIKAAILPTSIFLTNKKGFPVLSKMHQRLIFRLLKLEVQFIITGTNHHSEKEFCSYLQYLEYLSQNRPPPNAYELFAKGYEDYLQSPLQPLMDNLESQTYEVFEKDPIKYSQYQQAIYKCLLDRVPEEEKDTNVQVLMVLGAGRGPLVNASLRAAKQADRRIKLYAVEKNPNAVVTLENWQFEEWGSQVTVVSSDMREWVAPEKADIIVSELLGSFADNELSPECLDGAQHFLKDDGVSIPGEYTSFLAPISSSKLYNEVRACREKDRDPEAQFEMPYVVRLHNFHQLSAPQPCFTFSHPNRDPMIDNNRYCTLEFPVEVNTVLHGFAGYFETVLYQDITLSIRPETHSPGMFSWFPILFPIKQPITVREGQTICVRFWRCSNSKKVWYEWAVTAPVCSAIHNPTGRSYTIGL
UniProt Q9BQA1: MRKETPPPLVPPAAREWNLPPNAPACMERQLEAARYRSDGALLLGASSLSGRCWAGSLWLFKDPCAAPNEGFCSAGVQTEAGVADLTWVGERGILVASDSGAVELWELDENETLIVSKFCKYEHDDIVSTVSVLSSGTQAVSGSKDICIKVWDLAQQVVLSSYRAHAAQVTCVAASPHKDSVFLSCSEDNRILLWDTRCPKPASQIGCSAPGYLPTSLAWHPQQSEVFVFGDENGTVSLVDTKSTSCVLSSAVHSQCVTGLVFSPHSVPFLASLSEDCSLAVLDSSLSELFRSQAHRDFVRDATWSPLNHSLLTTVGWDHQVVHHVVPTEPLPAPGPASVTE
UniProt P31749: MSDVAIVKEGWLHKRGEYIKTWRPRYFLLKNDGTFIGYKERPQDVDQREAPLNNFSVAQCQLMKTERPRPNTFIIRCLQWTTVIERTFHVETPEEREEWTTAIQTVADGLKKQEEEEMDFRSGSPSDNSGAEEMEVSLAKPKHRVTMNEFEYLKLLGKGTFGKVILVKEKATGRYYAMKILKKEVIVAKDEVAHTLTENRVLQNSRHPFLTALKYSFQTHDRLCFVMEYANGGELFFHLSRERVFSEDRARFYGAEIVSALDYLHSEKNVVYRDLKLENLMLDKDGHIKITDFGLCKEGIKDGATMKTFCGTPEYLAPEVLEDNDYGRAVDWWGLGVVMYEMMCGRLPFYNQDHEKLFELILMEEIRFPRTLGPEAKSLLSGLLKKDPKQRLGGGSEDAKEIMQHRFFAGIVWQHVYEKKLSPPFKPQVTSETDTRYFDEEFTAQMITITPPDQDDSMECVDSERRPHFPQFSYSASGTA

Key:
[1] = target: T1, GST-tagged full-length TBL2 (UniProt Q9Y4P3); assay: pull-down; GST pull-down with purified GST and GST-tagged full-length or deletion mutants of TBL2 from HEK293T cells; source of PRMT5 and WDR77 not stated
T1 sequence: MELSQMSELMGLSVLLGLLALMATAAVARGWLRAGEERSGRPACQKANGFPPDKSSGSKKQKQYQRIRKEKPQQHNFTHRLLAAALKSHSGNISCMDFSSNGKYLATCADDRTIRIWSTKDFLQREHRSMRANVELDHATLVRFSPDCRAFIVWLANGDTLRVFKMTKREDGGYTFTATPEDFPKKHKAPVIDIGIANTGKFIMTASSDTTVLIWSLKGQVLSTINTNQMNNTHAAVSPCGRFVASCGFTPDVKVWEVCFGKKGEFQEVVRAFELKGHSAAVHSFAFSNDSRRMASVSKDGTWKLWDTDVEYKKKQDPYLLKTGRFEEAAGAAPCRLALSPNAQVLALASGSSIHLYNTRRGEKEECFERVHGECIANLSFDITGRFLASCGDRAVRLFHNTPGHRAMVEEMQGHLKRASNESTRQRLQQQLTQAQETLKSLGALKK

[2] = target: T2, C-terminal Flag-tagged TBL2 (transducin beta-like 2) (UniProt Q9Y4P3); assay: co-IP; 293T cells transfected with Flag-TBL2, HA-PRMT5 and MYC-WDR77 constructs; Flag or HA affinity agarose
T2 sequence: T1 sequence

[3] = target: T3, TBL2 (transducin beta-like 2), endogenous (human (endogenous in MDA-MB-231)) (UniProt Q9Y4P3); assay: proximity ligation; Duolink in situ PLA on fixed MDA-MB-231 cells with anti-TBL2, anti-PRMT5 and anti-WDR77 antibodies
T3 sequence: T1 sequence

[4] = target: T3, TBL2 (transducin beta-like 2), endogenous (human (endogenous in MDA-MB-231)); assay: co-IP; endogenous proteins in MDA-MB-231 lysate; lysis buffer 150 mM NaCl, 10 mM HEPES pH 7.4, 1% NP-40; reciprocal IPs; in some panels TBL2 silenced or Flag-TBL2 overexpressed, WDR77 knocked down or overexpressed
[5] = target: PRMT5 (protein arginine methyltransferase 5), endogenous (human (endogenous in MDA-MB-231 and 293T)) (UniProt O14744); assay: as above

In the case of “PRMT5 (as used in the GST pull-down and in Figures S3B,C) (from UniProt O14744 1-637) (enzyme)”, the binding [1] is reported as “binds”.
In the case of MYC-WDR77 (from UniProt Q9BQA1 1-342), the binding [2] is reported as “binds”.
For “WDR77 (methylosome protein 50), endogenous (from UniProt Q9BQA1 1-342)”, the binding [3] was “binds” and the binding [4] was “binds”.
“AKT1, endogenous (from UniProt P31749 1-480) (enzyme)” was tested, and the binding [5] was “binds”.
For “HA-PRMT5 (from UniProt O14744 1-637) (enzyme)”, the binding [2] was “binds”.
In the case of “WDR77 (as used in the GST pull-down and in Figures S3B,C) (from UniProt Q9BQA1 1-342)”, the binding [1] is reported as “binds”.
In the case of “PRMT5 (protein arginine methyltransferase 5), endogenous (from UniProt O14744 1-637) (enzyme)”, the binding [3] is reported as “binds” and the binding [4] is reported as “binds”.
